Test results: publication PMC13233068, “HSD17B7 is required for the function of sensory hair cells by regulating cholesterol synthesis” (eLife, 2026)
No constants are given. Whether binding was seen depends on the method and setting. Where a sequence is shown, tags or fusion partners need not be part of it.

Target: T1, HSD17B7^E182* (GST fusion surmised) in the in vitro binding assay (human) (UniProt P56937)
T1 sequence: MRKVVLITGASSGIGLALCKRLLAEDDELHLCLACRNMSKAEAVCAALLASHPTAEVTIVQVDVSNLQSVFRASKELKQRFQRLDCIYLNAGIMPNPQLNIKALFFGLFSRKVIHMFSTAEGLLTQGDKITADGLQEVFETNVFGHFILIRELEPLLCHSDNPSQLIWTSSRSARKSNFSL
Assay: pull-down; GST and GST-HSD17B7 immobilised on GSH resin, incubated with purified His-RER1 overnight at 4°C, washed with 0.3% PBST; Coomassie staining and western blot; both purified

binding: no binding
B1: RER1-His (natural protein, human (cDNA from HEK293T), UniProt O15258 1-196, looked up)
chain: MSEGDSVGESVHGKPSVVYRFFTRLGQIYQSWLDKSTPYTAVRWVVTLGLSFVYMIRVYLLQGWYIVTYALGIYHLNLFIAFLSPKVDPSLMEDSDDGPSLPTKQNEEFRPFIRRLPEFKFWHAATKGILVAMVCTFFDAFNVPVFWPILVMYFIMLFCITMKRQIKHMIKYRYIPFTHGKRRYRGKEDAGKAFAS
notes: RER1, full-length cDNA amplified from HEK293T cDNA; The legend prints RER1-His, the methods His-RER1; the pET-23b vector would add a C-terminal His tag (surmised); Detected by immunoblot of the His tag; also called His-RER1; ER retention receptor RER1
